Assay results taken from PubChem BioAssay AID2685 (National Center for Advancing Translational Sciences (NCATS), 2010).
Some of the results follow. Shown are side measurements of this screen, not its main read-out; they come without a call. The list favours compounds with an active or inconclusive main result. The note in brackets gives the kind of curve behind each potency; many fits are weak.

Test: qHTS Assay for Lipid Storage Modulators in Drosophila S3 Cells;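 as to cell number change: cells counted by Cell Tracker Red CMTPX staining in the red channel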
Details: BODIPY lipid droplet fluorescence, 18-24 h; for cell number change: measured here: cell count max response, cells fed with added oleic acid
Procedure, shortened: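 Laser-scanning cytometry quantifies lipid droplet accumulation (500–530 nm total intensity; droplet/cell object ratio) in oleic acid-fed (400 uM added) Drosophila S3 cells treated with a concentration series. 20 uM Triacsin C defined 100% inhibition.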

[1] = measured here: lipid fluorescence (Fed channel) AC50, cells fed with added oleic acid
[2] = measured here: cell number channel AC50, cells fed with added oleic acid

Row | Compound | cell number change [%] | AC50 [1] | AC50 [2]
1 | Cc1ccc(S(=O)(=O)N(C)c2ccc(OCC(=O)N3CCCCC3)cc2)cc1 | 12 | 3.26 µM [rising, single point] | –
2 | O=C(NCc1cccnc1)NC1CCCN1S(=O)(=O)c1ccc(Cl)cc1 (configuration not stated) | 18 | 29.1 µM [rising, single point] | –
3 | Cc1nn(C)c(C(=O)N/N=C/c2ccncc2)c1Cl | 7.47 | 2.91 µM [falling, single point] | –
4 | COc1ccc(NC(=O)CSc2ccc3nnc(CCNC(=O)c4ccccc4)n3n2)cc1 | – | 29.1 µM [rising, single point] | –
5 | CCCCN(C)C(=S)Nc1ccsc1C(=O)OC | 14.2 | 2.31 µM [rising, partial curve] | 2.31 µM [rising, partial curve]
6 | Cc1cccc(OCC(=O)NNC(=O)c2ccc([N+](=O)[O-])cc2)c1 | -1.59 | – | –
7 | C=CCn1c(SCC(=O)NCCCO)nc2sc3c(c2c1=O)CCC3 | 2.33 | – | 6.51 µM [rising, single point]
8 | CCOc1ccc(OCCCC(=O)O)cc1 | -51.3 | 6.51 µM [falling, single point] | 3.66 µM [falling, full curve]
9 | C=CCNC(=O)/C(C#N)=C/c1c(N2CCCCCC2)nc2ccccn2c1=O | -2.13 | 16.4 µM [falling, single point] | –
10 | COC(=O)c1ccccc1NC(=O)Nc1cc(C)cc(C)n1 | -169 | 23.1 µM [falling, partial curve] | 25.9 µM [falling, partial curve]
11 | O=C(NNC(=S)NCc1ccccc1)c1ccc(Br)cc1 | 10.9 | – | –
12 | COc1ccccc1C(C)NC(=O)c1cc(S(=O)(=O)N2CCCCC2)ccc1C (configuration not stated) | 38.4 | 0.82 µM [falling, full curve, poor fit] | –
13 | CCOC(=O)c1c(C)[nH]c(NC(=O)N2CCOCC2)c1C | 1.97 | – | –
14 | CCOC(=O)CCc1c(C)nc2c(c(C)nn2C(C)(C)C)c1C | -40.9 | 13 µM [falling, partial curve] | 14.6 µM [falling, single point]
15 | Cc1nc2ccc(S(=O)(=O)NCC(=O)N3CCc4ccccc43)cc2s1 | 0.619 | 16.4 µM [rising, single point] | –
16 | CC(=O)Nc1ccc2c(c1)CCC2=O | -69.6 | 20.6 µM [falling, single point] | –
17 | CCOC(=O)c1c(NC(=O)CSc2nnnn2-c2ccccc2)sc2c1CC(C)(C)NC2(C)C | -39.5 | 6.51 µM [rising, partial curve] | 20.6 µM [falling, partial curve, poor fit]
18 | CC(C)(C)c1ccc2c(c1)OCC(C(=O)O)O2 (configuration not stated) | -23.2 | 29.1 µM [falling, single point] | –
19 | O=C(NCCc1ccccc1)c1nc(-c2cccs2)no1 | – | 6.51 µM [falling, single point] | –
20 | Cc1nc2cc(N3CCCCC3)c(NC(=O)c3cccnc3)cc2c(=O)n1Cc1ccccc1 | -23.9 | 0.651 µM [rising, partial curve] | –
21 | O=C(O)C/C(=C\c1ccc(Cl)cc1)c1nc2ccccc2o1 | -27.8 | 6.51 µM [falling, single point] | –

Row | Compound | cell number change [%] | AC50 [1] | AC50 [2]
22 | C/C(=N\NS(=O)(=O)c1ccc(C)c([N+](=O)[O-])c1)c1cccs1 | -4.6 | – | –
23 | CC(C)(C)NS(=O)(=O)c1ccc2[nH]c3c(c2c1)CCCCC3 | -67.6 | 18.4 µM [falling, single point] | –
24 | COC(=O)c1[nH]c2cccc(OC)c2c1NC(=O)CCN1CCSCC1 | 19.8 | 6.51 µM [falling, single point] | –
25 | COc1cc2ccccc2cc1C(=O)N(CCN(C)C)c1nc2ccc(Br)cc2s1 | 29.1 | 20.6 µM [rising, partial curve, poor fit] | –
26 | O=C(NCCCN1CCN(c2ccc(F)cc2)CC1)C1CCCN(c2ncnc3c2nc2n3CCCCC2)C1 (configuration not stated) | 21.4 | 0.231 µM [rising, full curve] | –
27 | COCCNC(=O)CSc1nnc(-c2ccccc2F)n1Cc1ccccc1 | 114 | 1.64 µM [falling, partial curve] | –
28 | O=C(Nc1c2c(nn1-c1cccc(Cl)c1)CS(=O)(=O)C2)C1CC1 | 16.3 | – | –
29 | Cc1c(C)c2cc(Cl)c(OCC(=O)NC3CC(C)(C)NC(C)(C)C3)cc2oc1=O | 36.3 | – | 11.6 µM [rising, single point]
30 | Cc1nc2c(ccc3nc(NC(=O)Cc4ccccc4)sc32)s1 | -31.3 | 2.06 µM [falling, full curve, poor fit] | 29.1 µM [falling, single point]
31 | CCN(CC)C(=O)C1=C(C)Nc2ncnn2C1c1cccnc1 (configuration not stated) | 11.1 | 0.00461 µM [falling, full curve, poor fit] | –
32 | COc1cc(NC(=O)c2ccco2)c(C(=O)OCC(=O)Nc2ncc(Cl)cc2Cl)cc1OC | 16.5 | 0.731 µM [rising, single point] | –
33 | Cc1ccccc1NC(=O)C1c2cccc[n+]2CC(=O)N1c1c(C)cccc1C (configuration not stated) | 2.65 | – | 2.06 µM [rising, partial curve, poor fit]
34 | C=CCSc1nnc(CNC(=O)c2ccccc2C)n1C(C)C | -4.21 | 0.651 µM [falling, single point] | –
35 | COC(=O)CN(c1cccc(C)c1)S(=O)(=O)c1ccccc1 | 13.6 | – | 0.206 µM [rising, full curve, poor fit]
36 | Cc1ccc2nc(NC(=O)c3ccccn3)sc2c1 | 5.78 | 0.13 µM [rising, full curve, poor fit] | 0.13 µM [rising, full curve, poor fit]
37 | O=C(Nc1c(Cl)cc(Cl)cc1C(=O)NCCN1CCOCC1)c1cccc([N+](=O)[O-])c1 | – | 0.116 µM [rising, full curve, poor fit] | 0.00461 µM [rising, full curve, poor fit]
38 | Cc1cc(C(=O)N/N=C/c2cc(N=Nc3ccccc3)ccc2O)n[nH]1 | -27.3 | 29.1 µM [falling, single point] | –
39 | CCN(CC)c1ccc(CNc2nc3ccccc3n2C)cc1 | – | 3.26 µM [rising, single point] | –
40 | CCOc1ccc(CCNC(=O)c2cnccn2)cc1OCC | 3.75 | 2.91 µM [falling, partial curve] | –
41 | O=C(C1CCN(S(=O)(=O)c2cccc3cccnc23)CC1)N1CCCC1 | 10.6 | – | –
42 | CC(=O)Nc1ccc(NC(=O)Nc2cccc3ccccc23)cc1 | -3.81 | 29.1 µM [rising, single point] | –

Two compounds from above, showing only AC50 [1] and cell number change [%]:

| Row | Compound | AC50 [1] | cell number change [%] |
| --- | --- | --- | --- |
| 40 | CCOc1ccc(CCNC(=O)c2cnccn2)cc1OCC | 2.91 µM [falling, partial curve] | 3.75 |
| 41 | O=C(C1CCN(S(=O)(=O)c2cccc3cccnc23)CC1)N1CCCC1 | – | 10.6 |

(cont.)

Row | Compound | cell number change [%] | AC50 [1] | AC50 [2]
43 | CN(C)CCN(Cc1ccco1)S(=O)(=O)c1ccc(-c2ccc(=O)[nH]n2)s1 | -5.5 | – | –
44 | Cc1cc(F)ccc1NC(=S)NCCc1ccccc1 | -29.2 | – | 6.51 µM [rising, single point]
45 | CCSc1ncc(C#N)c(=O)[nH]1 | -30.8 | 0.92 µM [falling, full curve, poor fit] | 0.82 µM [falling, full curve]
46 | CCCNC(=O)c1cccc(COCC(F)(F)C(F)F)c1 | – | 0.082 µM [falling, full curve, poor fit] | –
47 | Cc1sc2ncn(CC(=O)NCCN3CCOCC3)c(=O)c2c1S(=O)(=O)N1CCC(C)CC1 | – | – | 2.91 µM [falling, single point]
48 | Cc1cc(N2CCOCC2)n2cc(-c3ccccc3)nc2n1 | 2.48 | – | –
49 | CC1CCCC(NC(=O)CN2C(=O)c3cccnc3Oc3ccc(Cl)cc32)C1C (configuration not stated) | -7.46 | 29.1 µM [falling, single point] | –
50 | COc1ccc(NC(=O)Cn2c([N+](=O)[O-])cnc2C)cc1Cl | 25.2 | – | 0.326 µM [rising, full curve, poor fit]
51 | CCC(=O)NC1=C(Cl)C(=O)C(NC(=O)CC)=C(Cl)C1=O | -11.5 | 3.26 µM [falling, full curve] | –
52 | N#Cc1c(N)oc(-c2ccccc2)c1-c1ccccc1 | -7.53 | 2.31 µM [falling, full curve, poor fit] | –
53 | CCCC1NC(=S)N(C2CCCCC2)C1=O (configuration not stated) | 33.7 | – | 9.2 µM [rising, partial curve]
54 | CCC(c1nnnn1C1CCCC1)N1CCC(C(N)=O)CC1 (configuration not stated) | -13.7 | 3.26 µM [falling, single point] | –
55 | CCC(C)(C(=O)NC1CCCCC1)N(Cc1ccco1)C(=O)c1cnccn1 (configuration not stated) | – | 6.51 µM [rising, partial curve] | 6.51 µM [rising, partial curve]
56 | COc1ccc(NC(=O)c2cccc(N3C(=O)C4CC=C(C)CC4C3=O)c2)c(OC)c1 (configuration not stated) | 3.85 | 29.1 µM [rising, single point] | –
57 | CCCOc1ccccc1OCC(=O)Nc1ccc(S(=O)(=O)N2CCCCC2)cc1 | -54 | 20.6 µM [falling, partial curve] | 20.6 µM [falling, partial curve]
58 | O=C(NCCc1ccccc1C(F)(F)F)C1CCC(=O)N(CCCN2CCCC2=O)C1 (configuration not stated) | 0.824 | 18.4 µM [falling, single point] | –
59 | CC(C)CC(=O)Nc1ccc(C(=O)CN2CCN(c3ccc(O)cc3)CC2)cc1 | – | 4.11 µM [falling, full curve] | –
60 | Cc1c(C(=O)C(=O)NCCc2ccc(S(N)(=O)=O)cc2)c2ccccc2n1C | -13.4 | 7.31 µM [rising, partial curve] | –
61 | CCCCn1c(N)c(N(CC(C)C)C(=O)C2CCN(c3ncnc4sc(C)c(C)c34)CC2)c(=O)[nH]c1=O | 93.5 | – | 13 µM [rising, partial curve]
